± gives the uncertainty stated by the source. Many of these values have a large error.
Assay: self-splicing fitness, log relative to wild type (ln ratio); higher = more splicing; Tetrahymena group I intron in knt gene, E. coli kanamycin selection, DiMSum; sequences stand for … in CUCUCU…GGAGGGAAAAGUUAUCAGGCAUGCACCUGGUAGCUAGUCUUUAAACCAAUAGAUUGCAUCGGUUUAAAAGGCAAGACCGUCAAAUUGCGGGAAAGGGGUCAACAGCCGUUCAGUACCAAGUCUCAGGGGAAACUUUGAGAUGGCCUUGCAAAGGGUAUGGUAAUAAGCUGACGGACAUGGUCCUAACCACGCAGCCAAGUCCUAAGUCAACAGAUCUUCUGUUGAUAUGGAUGCAGUUCACAGACUAAAUGUCGGUCGGGGAAGAUGUAUUCUUCUCAUAAGAUAUAGUCGGACCUCUCCUUAAUGGGAGCUAGCGGAUGAAGUGAUGCAACACUGGAGCCGCUGGGAACUAAUUUGUAUGCGAAAGUAUAUUGAUUAGUUUUGGAGUACUCGUGGUCG
Method in brief: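 Fitness was computed with DiMSum as the error-weighted combination of replicate fold changes, kanamycin versus none, each normalised to wild type. The library randomised all eight intron nucleotides of the P1ex region, with the intron placed in the knt kanamycin-resistance gene on pET-22b(+) in E. coli BL21(DE3). Six replicate transformations were grown overnight at 37°C or 30°C on LB agar with or without 25 μg/mL kanamycin, plus 100 μg/mL carbenicillin, 50 μM IPTG and 0.2% rhamnose. Pooled colonies were amplicon-sequenced on an Illumina HiSeq 2500.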

Sequence | self-splicing fitness (ln) (30 °C) | self-splicing fitness (ln) (37 °C)
CUGGAGCAAUAUUACGGAGG | -3.27 ± 1.1 | –
CAGGAGCAAUAUUACGUUGC | -2.74 ± 0.54 | –
CACGAGCAAUAUUACGCCAA | -4.14 ± 0.73 | -3.87 ± 1
AAAGAGCAAUAUUACGGGCC | -2.09 ± 0.3 | -1.86 ± 0.41
UCGGAGCAAUAUUACGUGUA | -3.88 ± 0.6 | –
CGUGAGCAAUAUUACGCAAC | -2.77 ± 0.36 | -2.18 ± 0.33
CUUGAGCAAUAUUACGAGGA | – | -3.72 ± 0.59
UCUCAGCAAUAUUACGUCCC | -3.96 ± 1 | -2.48 ± 0.54
UGAGAGCAAUAUUACGCAGG | -4.58 ± 0.59 | –
AAGGAGCAAUAUUACGAAAC | -3.26 ± 0.64 | -2.48 ± 0.77
AAUCAGCAAUAUUACGCCCC | -1.56 ± 0.87 | -1.79 ± 1.2
UCUGAGCAAUAUUACGAGAC | – | -3.98 ± 0.51
CACGAGCAAUAUUACGUAAG | -3.62 ± 0.14 | -1.82 ± 0.11
CCAGAGCAAUAUUACGCCUG | -2.44 ± 0.57 | –
UUGGAGCAAUAUUACGGGUG | -4.52 ± 0.59 | –
GUCAAGCAAUAUUACGGACC | – | -3 ± 1.1
AUGAAGCAAUAUUACGGUGA | -0.607 ± 0.069 | 0.195 ± 0.096
CUAGAGCAAUAUUACGGUCG | 0.342 ± 0.11 | -0.264 ± 0.13
UGAGAGCAAUAUUACGGUCC | -3.09 ± 0.79 | –
GCCCAGCAAUAUUACGUAUC | -0.98 ± 0.08 | -1.18 ± 0.081
GCGAAGCAAUAUUACGGAGU | -3.66 ± 0.2 | -3.43 ± 0.42
UCCCAGCAAUAUUACGUUCC | -2.26 ± 0.21 | -2.44 ± 0.27
ACACAGCAAUAUUACGAUAG | -2.96 ± 0.074 | -1.62 ± 0.069

Quoted from the listing:
CGUGAGCAAUAUUACGCAAC | self-splicing fitness (ln) (37 °C): -2.18 ± 0.33
GUCAAGCAAUAUUACGGACC | self-splicing fitness (ln) (37 °C): -3 ± 1.1
UCGGAGCAAUAUUACGUGUA | self-splicing fitness (ln) (30 °C): -3.88 ± 0.6
AAGGAGCAAUAUUACGAAAC | self-splicing fitness (ln) (30 °C): -3.26 ± 0.64

For reference, some entries already given.
Sequence | self-splicing fitness (ln) (30 °C) | self-splicing fitness (ln) (37 °C)
UGAGAGCAAUAUUACGGUCC | -3.09 ± 0.79 | –
GCCCAGCAAUAUUACGUAUC | -0.98 ± 0.08 | -1.18 ± 0.081

The list goes on:

Sequence | self-splicing fitness (ln) (30 °C) | self-splicing fitness (ln) (37 °C)
CGGCAGCAAUAUUACGGUCA | -0.0453 ± 0.068 | -0.156 ± 0.083
CGCCAGCAAUAUUACGGAGA | -4.59 ± 0.72 | –
AUCGAGCAAUAUUACGCACC | – | -2.08 ± 0.56
UUGCAGCAAUAUUACGGAGC | – | -5 ± 0.72
GAGUAGCAAUAUUACGAGGU | – | -3.42 ± 0.73
GUCCAGCAAUAUUACGCCCG | -2.09 ± 0.54 | -0.749 ± 0.62
CUAUAGCAAUAUUACGCGUA | -1.43 ± 0.31 | -2.86 ± 0.31
UUCGAGCAAUAUUACGUCCG | -3.05 ± 0.24 | -1.24 ± 0.28
ACUUAGCAAUAUUACGCCGC | – | -1.79 ± 0.53
GCGGAGCAAUAUUACGCGCU | – | -2.4 ± 0.76
GGUGAGCAAUAUUACGCCCU | – | -1.75 ± 0.67
AAAUAGCAAUAUUACGUUUC | – | -2.93 ± 0.75
CUGUAGCAAUAUUACGGAGC | -3.5 ± 0.75 | –
UGUAAGCAAUAUUACGAGAA | -2.62 ± 1.1 | –
GCUAAGCAAUAUUACGAGGU | -2.03 ± 0.19 | -1.51 ± 0.15
CAUUAGCAAUAUUACGACGC | – | -0.833 ± 0.54
CCGGAGCAAUAUUACGGUUC | -3.44 ± 0.6 | -1.02 ± 0.59
GGAGAGCAAUAUUACGCCAU | – | -0.408 ± 0.52
CGGGAGCAAUAUUACGUGUC | -3.27 ± 1.1 | -2.08 ± 1.1
ACAGAGCAAUAUUACGCCCC | -2.56 ± 0.77 | -1.47 ± 1.2
UCGGAGCAAUAUUACGAUCC | -4.12 ± 0.73 | -1.83 ± 0.56
UUCUAGCAAUAUUACGUCCC | -2.69 ± 0.81 | -1.63 ± 0.73
CUAUAGCAAUAUUACGCACU | -4.41 ± 1 | -3.01 ± 1

Sequence | self-splicing fitness (ln) (30 °C) | self-splicing fitness (ln) (37 °C)
UCUUAGCAAUAUUACGCUCC | -2.83 ± 0.62 | -1.63 ± 0.68
ACGAAGCAAUAUUACGAAAC | – | -3.13 ± 0.73
AUUUAGCAAUAUUACGCUCC | – | 0.658 ± 0.52
CCAGAGCAAUAUUACGGGAA | -2.99 ± 0.62 | –
CGCGAGCAAUAUUACGCUCC | -4.33 ± 1 | -2.64 ± 1.1
CGGGAGCAAUAUUACGAAGC | -0.772 ± 0.7 | –
AAUGAGCAAUAUUACGCUGC | -4.31 ± 0.59 | –
UACCAGCAAUAUUACGCCUC | -2.32 ± 0.19 | -0.554 ± 0.18
UUAUAGCAAUAUUACGGAGC | -4.45 ± 0.6 | –
UUUUAGCAAUAUUACGCUGC | -2.09 ± 0.82 | -1.74 ± 0.53
AAUAAGCAAUAUUACGCGGU | -3.83 ± 0.24 | -2.36 ± 0.17
ACUAAGCAAUAUUACGAGGA | -2.34 ± 0.23 | -2.13 ± 0.2
GGAGAGCAAUAUUACGUGAC | – | -1.29 ± 1.2
GCGUAGCAAUAUUACGCUUG | -3.64 ± 0.52 | –
CCGGAGCAAUAUUACGCCAU | -3.06 ± 0.76 | –
UGAGAGCAAUAUUACGCCAU | -2.66 ± 0.51 | –
UAAAAGCAAUAUUACGCUAC | – | -2.97 ± 0.52
GCAAAGCAAUAUUACGCAGG | -2.33 ± 0.13 | -2.02 ± 0.19
UUCUAGCAAUAUUACGUAGU | -2.76 ± 0.52 | –
GGGAAGCAAUAUUACGCCCU | -2.89 ± 0.51 | -1.95 ± 0.81
UGCAAGCAAUAUUACGACGC | -1.44 ± 0.4 | -0.865 ± 0.24
CAGGAGCAAUAUUACGGACA | -3.14 ± 0.76 | -3.43 ± 0.6
GUCCAGCAAUAUUACGUAAA | -0.484 ± 0.081 | 0.338 ± 0.12

Sequence | self-splicing fitness (ln) (30 °C) | self-splicing fitness (ln) (37 °C)
GGAGAGCAAUAUUACGCUAU | -4.11 ± 0.52 | -1.69 ± 0.82
AGCGAGCAAUAUUACGGAAA | – | -2.74 ± 1.1
CUGGAGCAAUAUUACGAGAA | -1.27 ± 0.65 | -2.64 ± 1.1
CCGGAGCAAUAUUACGAGAG | -2.13 ± 0.22 | -2.33 ± 0.22
GGCCAGCAAUAUUACGCUGG | -3.98 ± 0.27 | -2.27 ± 0.24
CAGGAGCAAUAUUACGCAAU | -3 ± 0.5 | –
CGUAAGCAAUAUUACGCUAA | -2.9 ± 0.54 | -3.71 ± 0.73
UCUUAGCAAUAUUACGCUUU | -3.89 ± 0.51 | –
AUAUAGCAAUAUUACGUGAC | -3 ± 0.53 | -2.85 ± 0.32
CAAGAGCAAUAUUACGAGGC | – | -2.08 ± 0.64
AGAGAGCAAUAUUACGAAUC | -3.68 ± 0.47 | -2.06 ± 0.37
UCGCAGCAAUAUUACGUUCC | – | -2.63 ± 0.61
GGACAGCAAUAUUACGGACA | -0.509 ± 0.11 | -0.307 ± 0.11
CAUGAGCAAUAUUACGUGAC | – | -1.49 ± 0.81
UUGGAGCAAUAUUACGCCUU | -2.65 ± 1.1 | -1.67 ± 0.61
CUUGAGCAAUAUUACGCAAA | – | -1.78 ± 0.53
UUAGAGCAAUAUUACGAGGC | -2.24 ± 0.55 | -2.5 ± 0.55
CCUUAGCAAUAUUACGCAAA | -4.38 ± 1 | –
CCCGAGCAAUAUUACGAAGA | – | -3.43 ± 1
CUAUAGCAAUAUUACGGCGC | – | -2.07 ± 0.65
AGCGAGCAAUAUUACGACAC | – | -0.825 ± 0.61
GACUAGCAAUAUUACGUCAC | – | -3 ± 0.53
UCCGAGCAAUAUUACGUACA | – | -2.82 ± 0.53

Sequence | self-splicing fitness (ln) (30 °C) | self-splicing fitness (ln) (37 °C)
UGGCAGCAAUAUUACGUGCG | -0.238 ± 0.061 | 0.163 ± 0.084
GCAGAGCAAUAUUACGAACA | – | -2.84 ± 0.55
AGGAAGCAAUAUUACGUCCG | -0.623 ± 0.16 | 0.408 ± 0.2
CGAGAGCAAUAUUACGAAUC | – | -3.57 ± 1
CAUAAGCAAUAUUACGGCCC | – | -2.54 ± 0.66
GGUGAGCAAUAUUACGAGAU | -4.65 ± 0.51 | –
CGGUAGCAAUAUUACGGUAC | -3.22 ± 0.54 | –
ACUAAGCAAUAUUACGGUUC | -3.92 ± 0.2 | -1.42 ± 0.13
UCCGAGCAAUAUUACGGGCC | -3.8 ± 0.3 | -2.94 ± 0.35
UGAGAGCAAUAUUACGUGAA | -4.19 ± 0.33 | -2.35 ± 0.27
AGGAAGCAAUAUUACGGUAU | -2.52 ± 0.28 | -0.707 ± 0.24
UGAGAGCAAUAUUACGGGAA | -1.81 ± 0.51 | -3.14 ± 0.74
GGGAAGCAAUAUUACGCUUU | – | -3.1 ± 0.74
UCGCAGCAAUAUUACGCAGC | -3.91 ± 0.73 | –
UAGAAGCAAUAUUACGCGAU | – | -2.86 ± 1.1
GUGGAGCAAUAUUACGUACG | -4.29 ± 0.51 | –
CGAAAGCAAUAUUACGGGAA | -2.17 ± 0.4 | -2.08 ± 0.26
AAGCAGCAAUAUUACGCAUC | – | -3.65 ± 0.51
GUUGAGCAAUAUUACGAGGC | – | -1.12 ± 0.6
UGUCAGCAAUAUUACGUCUA | 0.314 ± 0.096 | -0.489 ± 0.1
CAGGAGCAAUAUUACGACCA | -3.78 ± 0.52 | -1.27 ± 0.31
CCUGAGCAAUAUUACGAUAC | -2.85 ± 0.54 | -1.95 ± 0.51
UGAUAGCAAUAUUACGUCCA | 0.015 ± 0.09 | 0.154 ± 0.12

Source: the supplement of paper PMC7877785
